Source: patent US10563263B2, “Genetic polymorphisms associated with statin response and cardiovascular diseases, methods of detection and uses thereof” (CELERA CORPORATION, priority 2010, dated 2020)
Further values from the same series stand in other lists.

System: CVD (CHD or stroke)
Assay: CARE: SNP by pravastatin treatment interaction, logistic regression (synergy index), CVD endpoint
Assay type: in vivo, human
Text: CARE was a secondary prevention trial and WOSCOPS was a primary prevention trial.
The CHD endpoint was defined in the analyses herein of CARE as a composite endpoint of fatal CHD, definite non-fatal MI, or revascularization, and was defined in the analyses herein of WOSCOPS as a composite endpoint of death from CHD, nonfatal MI, or revascularization. In both the CARE and WOSCOPS analyses herein, the CVD endpoint was defined as a composite endpoint of CHD or stroke. […] Revascularization, which can include percutaneous transluminal coronary angioplasty (PTCA), stent placement, and coronary artery bypass graft (CABG), are medical interventions that indicate the presence of CHD.
Cohort and case-only study designs were used to identify SNPs associated with response to statin treatment.
For each SNP, a logistic regression model having treatment status as the dependent variable and SNP as the independent predictor variable was performed, with terms for age, sex and race included in the model as covariates. The anti-log of the regression coefficient corresponding to the SNP is an estimate of the synergy index (SI) (Davis et al., “Imputing gene-treatment interactions when the genotype distribution is unknown using case-only and putative placebo analyses-a new method for the Genetics of Hypertension Associated Treatment (GenHAT) study”, Statistics in Medicine 23: (2004), pages 2413-2427). The SI is a ratio of odds ratios: for example in the CARE and WOSCOPS studies, the SI represents the factor by which the odds-ratio of statin treatment, compared with placebo, among major homozygous individuals is multiplied by in order to obtain the odds-ratio of treatment vs. placebo among heterozygous individuals; and multiplied by a second time to obtain the odds-ratio of treatment vs. placebo in minor homozygous individuals. […] In a randomized clinical trial, genotype and treatment are independent by design.

SMILES: CC[C@H](C)C(=O)O[C@H]1C[C@H](O)C=C2C=C[C@H](C)[C@H](CC[C@@H](O)C[C@@H](O)CC(=O)O)[C@H]21 [Pravastatin, pravastatin]
- OR (rs4714484 allele A1=A, model ADD, Imputed, pravastatin vs placebo): 0.6694
- OR (rs4736802 allele A1=G, model DOM, Imputed, pravastatin vs placebo): 1.64
- OR (rs4760785 allele A1=A, model ADD, Imputed, pravastatin vs placebo): 0.7218
- OR (rs4760785 allele A1=A, model DOM, Imputed, pravastatin vs placebo): 0.6464
- OR (rs4760894 allele A1=T, model ADD, Imputed, pravastatin vs placebo): 0.7218
- OR (rs4760894 allele A1=T, model DOM, Imputed, pravastatin vs placebo): 0.6464
- OR (rs4760895 allele A1=A, model ADD, Imputed, pravastatin vs placebo): 0.7218
- OR (rs4760895 allele A1=A, model DOM, Imputed, pravastatin vs placebo): 0.6464
- OR (rs4764738 allele A1=A, model ADD, Imputed, pravastatin vs placebo): 1.331
- OR (rs4764974 allele A1=T, model ADD, Imputed, pravastatin vs placebo): 1.322
- OR (rs4798366 allele A1=G, model REC, Imputed, pravastatin vs placebo): 1.597
- OR (rs4836502 allele A1=T, model DOM, Imputed, pravastatin vs placebo): 0.6617
- OR (rs4836507 allele A1=C, model DOM, Imputed, pravastatin vs placebo): 0.6716
- OR (rs4836744 allele A1=A, model ADD, Imputed, pravastatin vs placebo): 0.7163
- OR (rs4836744 allele A1=A, model DOM, Imputed, pravastatin vs placebo): 0.6971
- OR (rs4848944 allele A1=C, model REC, Genotyped, pravastatin vs placebo): 0.6741
- OR (rs4851529 allele A1=A, model DOM, Imputed, pravastatin vs placebo): 0.6968
- OR (rs4851531 allele A1=T, model DOM, Imputed, pravastatin vs placebo): 0.7275
- OR (rs4878214 allele A1=A, model ADD, Imputed, pravastatin vs placebo): 0.5979
- OR (rs4880803 allele A1=A, model ADD, Imputed, pravastatin vs placebo): 0.7753
- OR (rs4896568 allele A1=T, model DOM, Imputed, pravastatin vs placebo): 0.6713
- OR (rs4938851 allele A1=T, model DOM, Imputed, pravastatin vs placebo): 1.543
- OR (rs4964416 allele A1=C, model DOM, Imputed, pravastatin vs placebo): 0.598
- OR (rs5756669 allele A1=C, model DOM, Imputed, pravastatin vs placebo): 1.724
- OR (rs6033138 allele A1=C, model ADD, Imputed, pravastatin vs placebo): 1.371
- OR (rs6033138 allele A1=C, model REC, Imputed, pravastatin vs placebo): 1.836
- OR (rs6040619 allele A1=C, model ADD, Imputed, pravastatin vs placebo): 1.337
- OR (rs6040619 allele A1=C, model REC, Imputed, pravastatin vs placebo): 1.844
- OR (rs6040625 allele A1=T, model ADD, Imputed, pravastatin vs placebo): 1.343
- OR (rs6040625 allele A1=T, model REC, Imputed, pravastatin vs placebo): 1.844
- OR (rs6040630 allele A1=A, model ADD, Imputed, pravastatin vs placebo): 1.353
- OR (rs6040630 allele A1=A, model REC, Imputed, pravastatin vs placebo): 1.892
- OR (rs6040633 allele A1=A, model ADD, Imputed, pravastatin vs placebo): 1.35
- OR (rs6040633 allele A1=A, model REC, Imputed, pravastatin vs placebo): 1.888
- OR (rs6040634 allele A1=T, model ADD, Imputed, pravastatin vs placebo): 1.353
- OR (rs10922903 allele C, REC model, Imputed): 0.4885
- OR (rs10941126 allele G, ADD model, Imputed): 0.2198
- OR (rs10941126 allele G, DOM model, Imputed): 0.2258
- OR (rs10947980 allele G, ADD model, Imputed): 0.7397
- OR (rs11059376 allele T, ADD model, Imputed): 1.559
- OR (rs11072995 allele T, REC model, Imputed): 3.578
- OR (rs11081202 allele G, REC model, Genotyped): 1.887
- OR (rs11124962 allele A, DOM model, Imputed): 1.469
- OR (rs11178531 allele A, ADD model, Imputed): 0.7599
- OR (rs11178531 allele A, DOM model, Imputed): 0.6258
- OR (rs11178583 allele A, ADD model, Imputed): 0.7274
- OR (rs11178583 allele A, DOM model, Imputed): 0.6032
- OR (rs11178589 allele T, ADD model, Imputed): 0.7243
- OR (rs11178589 allele T, DOM model, Imputed): 0.5988
- OR (rs11178594 allele C, ADD model, Imputed): 0.7305
- OR (rs11178594 allele C, DOM model, Imputed): 0.5995
- OR (rs11178602 allele T, ADD model, Imputed): 0.7265
- OR (rs11178602 allele T, DOM model, Imputed): 0.592
- OR (rs11178648 allele T, ADD model, Imputed): 0.7481
- OR (rs11178648 allele T, DOM model, Imputed): 0.5905
- OR (rs11198877 allele T, DOM model, Imputed): 1.634
- OR (rs11198942 allele T, DOM model, Imputed): 1.654
- OR (rs11221075 allele A, ADD model, Imputed): 0.6446
- OR (rs11242020 allele T, DOM model, Imputed): 0.6462
- OR (rs11242021 allele T, DOM model, Imputed): 0.6617
- OR (rs11242022 allele T, DOM model, Imputed): 0.6617
- OR (rs11242023 allele T, DOM model, Imputed): 0.6676
- OR (rs11576627 allele T, ADD model, Imputed): 1.72
- OR (rs11576627 allele T, DOM model, Imputed): 1.805
- OR (rs11630050 allele G, REC model, Imputed): 3.097
- OR (rs11633024 allele C, REC model, Imputed): 3.097
- OR (rs11636298 allele G, REC model, Imputed): 3.433
- OR (rs11637363 allele C, REC model, Imputed): 3.309
- OR (rs11637813 allele A, REC model, Imputed): 3.097
- OR (rs11638043 allele C, REC model, Imputed): 2.984
- OR (rs11638115 allele A, REC model, Imputed): 3.578
- OR (rs11717157 allele T, ADD model, Imputed): 1.366
- OR (rs11724055 allele A, DOM model, Imputed): 0.6341
- OR (rs11743355 allele C, ADD model, Imputed): 0.2056
- OR (rs11743355 allele C, DOM model, Imputed): 0.2102
- OR (rs11746806 allele T, ADD model, Imputed): 0.2198
- OR (rs11746806 allele t, DOM model, Imputed): 0.2258
- OR (rs11746959 allele T, ADD model, Imputed): 0.2198
- OR (rs11746959 allele T, DOM model, Imputed): 0.2258
- OR (rs11749272 allele T, DOM model, Imputed): 0.6489
- OR (rs11853619 allele C, REC model, Imputed): 3.396
- OR (rs11856780 allele A, REC model, Imputed): 3.396
- OR (rs11901899 allele A, DOM model, Imputed): 1.388
- OR (rs11903290 allele C, REC model, Imputed): 1.68
- OR (rs11909480 allele G, ADD model, Imputed): 0.3557
- OR (rs11909480 allele G, DOM model, Imputed): 0.3552
- OR (rs11910289 allele T, ADD model, Imputed): 1.705
- OR (rs11910289 allele T, DOM model, Imputed): 1.77
- OR (rs11926319 allele G, DOM model, Imputed): 0.5553
- OR (rs11933744 allele T, REC model, Imputed): 2.427
- OR (rs11934919 allele C, REC model, Imputed): 2.427
- OR (rs11934957 allele C, REC model, Imputed): 2.427
- OR (rs11959206 allele A, REC model, Imputed): 0.528
- OR (rs17076972 allele C, REC model, Imputed): 1.816
- OR (rs17189710 allele T, ADD model, Imputed): 1.338
- OR (rs17196143 allele A, ADD model, Imputed): 1.57
- OR (rs17353809 allele G, ADD model, Imputed): 1.511
- OR (rs17446418 allele G, DOM model, Imputed): 0.537
- OR (rs17530747 allele T, DOM model, Imputed): 0.525
- OR (rs17604285 allele C, ADD model, Imputed): 0.533
- OR (rs17604285 allele C, DOM model, Imputed): 0.504
- OR (rs17662322 allele T, DOM model, Imputed): 0.555
- OR (rs17769826 allele T, ADD model, Imputed): 1.504
- OR (rs17821641 allele T, ADD model, Imputed): 1.5
